Laboratory results from patent publication US7452905B2, “Phenylalanine derivatives” (Ajinomoto Co., Inc., priority 2000, dated 2008).
The structures given here were assigned with low confidence; some may be wrong.

The chains behind the UniProt entries cited, without tags or fusion partners. Residues count along the entry.
UniProt P13612, 34-1032 limits assumed: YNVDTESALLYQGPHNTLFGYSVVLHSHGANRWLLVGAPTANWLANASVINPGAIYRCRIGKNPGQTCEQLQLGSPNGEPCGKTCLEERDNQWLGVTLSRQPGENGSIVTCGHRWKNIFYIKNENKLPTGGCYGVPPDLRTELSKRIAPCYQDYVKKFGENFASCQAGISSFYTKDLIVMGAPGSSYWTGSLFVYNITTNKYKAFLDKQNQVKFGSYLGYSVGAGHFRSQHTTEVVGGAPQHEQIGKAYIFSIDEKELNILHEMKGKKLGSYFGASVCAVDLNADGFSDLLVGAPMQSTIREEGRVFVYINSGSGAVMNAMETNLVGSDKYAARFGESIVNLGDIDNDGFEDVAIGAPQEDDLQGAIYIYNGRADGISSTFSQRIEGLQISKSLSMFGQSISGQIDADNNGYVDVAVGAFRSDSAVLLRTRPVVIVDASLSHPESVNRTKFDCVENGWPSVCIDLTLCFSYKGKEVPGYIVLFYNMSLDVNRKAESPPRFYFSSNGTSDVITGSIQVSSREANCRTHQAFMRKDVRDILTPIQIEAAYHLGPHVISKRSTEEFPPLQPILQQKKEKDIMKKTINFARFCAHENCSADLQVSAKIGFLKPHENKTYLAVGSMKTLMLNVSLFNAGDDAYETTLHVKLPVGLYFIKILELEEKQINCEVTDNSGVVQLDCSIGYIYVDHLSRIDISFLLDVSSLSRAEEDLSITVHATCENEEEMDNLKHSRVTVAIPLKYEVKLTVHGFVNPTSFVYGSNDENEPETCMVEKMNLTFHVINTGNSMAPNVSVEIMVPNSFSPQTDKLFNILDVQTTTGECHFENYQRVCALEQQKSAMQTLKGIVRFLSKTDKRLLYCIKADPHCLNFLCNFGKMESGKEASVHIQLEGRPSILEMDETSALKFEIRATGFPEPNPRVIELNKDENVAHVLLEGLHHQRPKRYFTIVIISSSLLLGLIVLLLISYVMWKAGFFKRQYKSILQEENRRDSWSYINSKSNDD
UniProt P26010, 20-798 limits assumed: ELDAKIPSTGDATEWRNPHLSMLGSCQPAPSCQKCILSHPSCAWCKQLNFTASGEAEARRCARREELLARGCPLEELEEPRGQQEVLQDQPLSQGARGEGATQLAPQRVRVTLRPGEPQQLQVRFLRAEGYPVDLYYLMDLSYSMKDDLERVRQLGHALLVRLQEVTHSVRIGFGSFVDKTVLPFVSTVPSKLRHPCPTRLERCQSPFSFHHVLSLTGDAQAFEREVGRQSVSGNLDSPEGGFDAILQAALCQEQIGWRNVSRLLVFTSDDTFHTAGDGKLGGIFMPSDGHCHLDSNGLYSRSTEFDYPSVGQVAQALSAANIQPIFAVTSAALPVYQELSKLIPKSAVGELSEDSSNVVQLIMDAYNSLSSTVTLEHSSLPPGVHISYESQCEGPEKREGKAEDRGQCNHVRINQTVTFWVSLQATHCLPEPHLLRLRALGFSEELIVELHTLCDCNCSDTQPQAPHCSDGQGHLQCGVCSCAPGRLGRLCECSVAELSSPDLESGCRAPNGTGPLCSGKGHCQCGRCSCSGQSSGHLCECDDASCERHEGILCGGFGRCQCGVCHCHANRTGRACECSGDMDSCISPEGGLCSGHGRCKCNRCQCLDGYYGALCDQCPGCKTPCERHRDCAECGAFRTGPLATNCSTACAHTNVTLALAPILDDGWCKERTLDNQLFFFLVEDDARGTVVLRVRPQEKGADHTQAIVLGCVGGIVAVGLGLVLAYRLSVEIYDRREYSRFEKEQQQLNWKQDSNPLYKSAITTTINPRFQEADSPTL
UniProt P05556, 21-798 limits assumed: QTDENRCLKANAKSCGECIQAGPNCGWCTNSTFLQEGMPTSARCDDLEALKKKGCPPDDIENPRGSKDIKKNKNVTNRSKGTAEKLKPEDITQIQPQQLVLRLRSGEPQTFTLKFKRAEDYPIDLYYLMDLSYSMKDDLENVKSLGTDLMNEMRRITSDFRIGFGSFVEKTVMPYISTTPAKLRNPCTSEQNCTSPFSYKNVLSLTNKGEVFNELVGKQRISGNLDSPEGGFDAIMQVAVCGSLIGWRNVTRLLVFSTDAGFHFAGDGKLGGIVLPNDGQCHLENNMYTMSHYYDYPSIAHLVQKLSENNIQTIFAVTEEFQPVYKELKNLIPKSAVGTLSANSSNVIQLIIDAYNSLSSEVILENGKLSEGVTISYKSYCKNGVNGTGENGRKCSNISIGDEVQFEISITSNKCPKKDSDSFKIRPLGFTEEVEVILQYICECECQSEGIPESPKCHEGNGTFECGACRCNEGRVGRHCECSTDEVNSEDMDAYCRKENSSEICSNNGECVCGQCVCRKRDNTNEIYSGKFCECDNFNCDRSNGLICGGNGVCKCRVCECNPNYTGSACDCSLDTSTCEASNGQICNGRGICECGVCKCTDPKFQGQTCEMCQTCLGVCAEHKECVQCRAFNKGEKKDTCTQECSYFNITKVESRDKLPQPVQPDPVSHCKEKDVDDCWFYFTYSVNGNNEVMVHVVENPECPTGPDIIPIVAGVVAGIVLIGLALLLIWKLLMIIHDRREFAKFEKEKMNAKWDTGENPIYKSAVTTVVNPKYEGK

Tests used:
integrin α4β7 = integrin α4β7 (Homo sapiens, UniProt P13612+P26010); assay: VCAM antagonistic activity (VCAM-1/α4β7 binding assay), RPMI-8866 cells binding to VCAM-1; settings: read-out: Antagonistic Activity IC50 α 4 β 7/VCAM; RPMI-8866 cells binding to recombinant human VCAM-1, binding buffer with 4 mM MnCl2; 50% binding inhibition
Method: VCAM Antagonistic Activity (VCAM-1/α4β7 Binding Assay)
(§1) The capacity of a test substance antagonistic to the binding of lymphoma cell strain RPMI-8866 of human B cells, known to express integrin α4β7, to VCAM-1 was determined. 100 μl/well of a solution (500 ng/ml) of recombinant human VCAM-1 (R & D systems) solution diluted with buffer A (0.1 M NaHCO3, pH 9.6) was added to a micro titer plate having 96 wells (Nunc Maxisorp). After the incubation at 4° C. overnight, unbound VCAM-1 was removed by washing once with PBS. […]
RPMI-8866 cells were incubated in Dulbecco modified Eagle medium containing 10 μg/ml of Calcein-AM (Wako Pure Chemical Industries, Ltd.) (SIGMA, hereinafter referred to as “DMEM”) at 37° C. for 30 minutes to label with fluorescence. […]
(§2) 50 μl of a test substance of various concentrations obtained by the dilution with the binding buffer was added to the plate. […] The fluorescence quantity of the bound cells remaining in the wells was determined with a fluorescent plate reader (Wallac 1420 ARVO multi-label counter) (filter excitation wave length: 485 nm, emission wave length: 535 nm). […] The binding rate of each test material in various concentrations was determined while the fluorescent strength of the test material-free well was determined to be 100%. […]

integrin α4 β1 = integrin α4 β1 (Homo sapiens, UniProt P05556+P13612); assay: VCAM antagonist activity (VCAM-1/α4β1 binding assay), Jurkat cells binding to VCAM-1; settings: read-out: Antagonistic Activity IC50 α 4 β 1/VCAM; Jurkat cells binding to recombinant human VCAM-1; 50% binding inhibition
Method: VCAM Antagonist Activity (VCAM-1/α4β1 Binding Assay)
as §1, with “of” for “of lymphoma”, “strain Jurkat (ATCC TIB-152)” for “strain RPMI-8866”, “human T” for “human B”, “integrin α4 β1,” for “integrin α4β7,”
Jurkat cells were washed with Dulbecco modified Eagle medium (SIGMA, hereinafter referred to as “DMEM”) twice and then incubated in DMEM containing 10 μg/ml of Calcein-AM (Wako Pure Chemical Industries, Ltd.) at 37° C. in dark place for 30 minutes to label with fluorescence. […]
as §2

IC50 (integrin α4β7): 0.044 µM
IC50 (integrin α4 β1): 0.58 µM
SMILES: CN(C)c1ccc2c(c1)C(=O)N(c1ccc(C[C@H](NC(=O)c3c(Cl)cccc3Cl)C(=O)O)cc1)C2=O
